Paper PMC12376700
No constants are given. Whether binding was seen depends on the method and setting. In cells and extracts the contact can be indirect. Some results given as binding are weak or reduced against the parent protein; the word gives no strength. Tags and fused reporters may be left off the sequences shown.

Chains of the proteins cited; added tags and fusions are not shown. Residues count along the entry.
UniProt O35593, residues 234-310: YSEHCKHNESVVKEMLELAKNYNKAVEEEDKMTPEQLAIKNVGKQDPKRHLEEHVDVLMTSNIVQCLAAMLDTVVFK

Biological target: T1, Myc-tagged SLC7A11 (UniProt Q9WTR6)
T1 sequence: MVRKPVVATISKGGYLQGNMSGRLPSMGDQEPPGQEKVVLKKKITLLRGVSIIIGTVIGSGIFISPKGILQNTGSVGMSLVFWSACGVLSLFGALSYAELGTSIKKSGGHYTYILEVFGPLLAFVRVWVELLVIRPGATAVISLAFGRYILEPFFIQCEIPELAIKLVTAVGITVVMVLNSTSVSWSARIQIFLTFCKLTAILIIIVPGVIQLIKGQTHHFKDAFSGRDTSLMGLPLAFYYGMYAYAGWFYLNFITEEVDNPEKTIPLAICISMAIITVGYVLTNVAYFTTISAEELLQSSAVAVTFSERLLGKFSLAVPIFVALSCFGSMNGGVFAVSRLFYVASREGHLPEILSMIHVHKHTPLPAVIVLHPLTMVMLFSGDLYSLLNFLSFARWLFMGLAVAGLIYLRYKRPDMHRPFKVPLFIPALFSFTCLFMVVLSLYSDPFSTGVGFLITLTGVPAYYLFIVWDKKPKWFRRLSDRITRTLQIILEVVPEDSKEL
Experiment: co-IP; plasmid-transfected MLO-Y4 cells (Flag-PSMD14 or its fragments with Myc-SLC7A11); immunoprecipitation with anti-Myc antibody or the indicated antibodies, immunoblot; for the full-length pair cells treated with MG132 (10 µM) for 8 h with PBS or DEX (100 µM)

binding: binds
Substance: Flag-PSMD14 (234–310) (from UniProt O35593 234-310) (domain or fragment)
